# PubChem BioAssay AID2551 (National Center for Advancing Translational Sciences (NCATS), 2010)
# By UniProt entry, the sequences of proteins in these tests, tags left out. Where a name states a change or a piece, a line headed by the entry shows the natural chain unless it says otherwise.
# UniProt P51450: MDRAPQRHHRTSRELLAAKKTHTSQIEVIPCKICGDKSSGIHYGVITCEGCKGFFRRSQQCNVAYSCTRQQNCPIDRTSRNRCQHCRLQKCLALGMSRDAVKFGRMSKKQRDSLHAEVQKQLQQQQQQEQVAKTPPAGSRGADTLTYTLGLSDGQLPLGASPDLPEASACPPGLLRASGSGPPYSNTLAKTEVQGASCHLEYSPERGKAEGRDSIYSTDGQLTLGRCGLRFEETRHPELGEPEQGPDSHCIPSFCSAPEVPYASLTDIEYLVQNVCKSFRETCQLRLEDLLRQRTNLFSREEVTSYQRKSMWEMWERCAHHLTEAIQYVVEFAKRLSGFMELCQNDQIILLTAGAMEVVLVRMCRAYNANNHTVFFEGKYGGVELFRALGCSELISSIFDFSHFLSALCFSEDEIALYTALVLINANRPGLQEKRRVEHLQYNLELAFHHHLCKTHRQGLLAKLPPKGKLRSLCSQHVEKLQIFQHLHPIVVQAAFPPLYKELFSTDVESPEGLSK
# Hit rate of the full screen: of about 310,000 compounds, about 17,000 (5.5%) were called active. This list was built around the results that the source calls inconclusive (neither active nor inactive); the mix of calls is not that of the screen. The call rests on the fitted dose curve; in most records, active means well fitted inhibition curve with a large enough effect; inconclusive means small, poorly fitted or top-dose-only effect, or effect the other way; inactive means no such curve, though single readings can be large or run the other way. Where the call is inconclusive, the potency comes from a doubtful curve fit.
# Target: Nuclear receptor ROR-gamma (Mus musculus) (UniProt P51450)
# Assay: qHTS for inhibitors of ROR gamma transcriptional activity; further: nearly all actives have a fitted effect of over 60% in size
# Conditions: Drosophila S2 Gal4-RORgamma UAS-luciferase reporter, 20 h; activity change, negative = inhibition: at 53.6 µM (top of the series)
# Outline: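 Drosophila Schneider cells stably carrying a metallothionein-driven Gal4 DBD–ROR gamma fusion and a UAS-Photinus luciferase reporter were exposed to compound for 1 hr, then induced with copper sulfate (700 uM final) for 20 hr at ambient temperature before luminescence reading.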
# On the % scale 0 is the no-effect control and ±100 the full control effect; potency means the concentration at half of the fitted maximal effect.
Compound,Potency,"activity change, negative = inhibition"
Cc1ccc(NC(=S)N2CCCCCC2)c(C)c1,"inconclusive: 25.1 µM [inhibitor, single point]",–
O=C(NCc1cc([N+](=O)[O-])ccc1O)c1cccnc1Sc1ccccc1Cl,active: 3.55 µM,–
CCOC(=O)C(C(=O)NCc1ccc(F)cc1)c1ncc(C(F)(F)F)cc1Cl (stereo unspecified),"inconclusive: 0.0056 µM [inhibitor, full curve, poor fit]",–
O=C(CN1CCCC1)Nc1ccc(Br)cc1[N+](=O)[O-],–,inactive: -5.4% [at 1.91 µM]
CSc1ccccc1NC(=O)COc1ccccc1Cl,"inconclusive: 12.6 µM [activator, single point]",–
N#Cc1ccc(C2=NC(C(F)(F)F)(C(F)(F)F)c3c(n(Cc4ccco4)c(=O)[nH]c3=O)N2)cc1,active: 12.6 µM,–
COc1cccc2cc(C(C)N(CCCN3CCOCC3)C(=S)Nc3ccccc3C)oc12 (stereo unspecified),"inconclusive: 15.8 µM [inhibitor, single point]",–
S=C(Nc1ccc(Oc2ccccc2)cc1)N(CCCN1CCOCC1)Cc1ccccn1,active: 14.1 µM,–
O=C(NC(=S)Nc1ccc(CN2CCOCC2)cc1)c1ccc([N+](=O)[O-])cc1Cl,active: 7.94 µM,–
COc1ccc(CNC(=O)CSc2nn3c(=O)c(C(C)(C)C)nnc3s2)cc1OC,active: 3.55 µM,–
Cc1c(Cl)c([N+](=O)[O-])nn1CCCC(=O)Nc1cc(Cl)ccc1Cl,"inconclusive: 35.5 µM [activator, single point]",–
O=c1c2sc(-c3ccccc3)cc2nc2n1CCC2,active: 2.51 µM,–
Cc1occc1C(=O)n1cnc2ccccc21,inactive,–
CN(c1ccccc1)S(=O)(=O)c1ccc(NC(=O)c2ccc(-c3ccccc3)cc2)cc1,"inconclusive: 11.2 µM [activator, single point]",–
CCN(CC)S(=O)(=O)c1ccc(N2CCCC2)c(NS(=O)(=O)c2ccc(OC)cc2)c1,inactive,–
O=C(Nc1ccccc1)Nc1ncc([N+](=O)[O-])s1,"inconclusive: 3.16 µM [activator, partial curve, poor fit]",–
CC(C)CNC(=S)NC1CC2CCC(C1)N2Cc1ccccc1 (stereo unspecified),active: 10 µM,–
COC(=O)CCCC(=O)NC1CC(C)(C)Cc2c1cnn2-c1ccc(C)cc1 (stereo unspecified),"inconclusive: 22.4 µM [activator, single point]",–
Cc1ccc(C)c(OCCCCCn2ccnc2)c1,active: 8.91 µM,–
C=CCn1c(=NC(=O)C2CCCCC2)sc2cc(NC(C)=O)ccc21,"inconclusive: 25.1 µM [activator, single point]",–
CN1c2ccccc2C(O)=C(C(=S)Nc2ccc(F)c(Cl)c2)S1(=O)=O,"inconclusive: 14.1 µM [inhibitor, partial curve, poor fit]",–

# One compound at a time (already shown). Values in the order: Potency	activity change, negative = inhibition
# S=C(Nc1ccc(Oc2ccccc2)cc1)N(CCCN1CCOCC1)Cc1ccccn1 as listed: active: 14.1 µM	–
# O=c1c2sc(-c3ccccc3)cc2nc2n1CCC2 as listed: active: 2.51 µM	–
